This series can be described thus: general procedure: Fmoc solid-phase peptide synthesis; Rink amide resin; HATU/DIPEA (CF labelling). The following applies: whole synthesis; for purity (crude or final not stated): RP-HPLC coupled with ESI/MS.

This note sets out measurements from PMC7699256 (Molecules, 2020).

Some peptides are written in HELM: one residue between dots, names in brackets for other building blocks, links after the first $.

As to “PEPTIDE1{F.N.Q.L.A.A.L.N.S.A.A.Y.L.Q.Q.Q.Q.L.L.P.F.S.Q.L.A.[am]}$$$$V2.0”, the “purity (crude or final not stated)” value is given as ≥95%.

CF-AYLQAQQLLPFNQLVRSPAA: the “purity (crude or final not stated)” value is on record as >90%.

For the substance CF-QLADVSPAAFLTQQQLLPFYLHAM, the “purity (crude or final not stated)” value is listed as >70%.

On to “PEPTIDE1{Q.L.A.D.V.S.P.A.A.F.L.T.Q.Q.Q.L.L.P.F.Y.L.H.A.M.[am]}$$$$V2.0”, for which the difficulty met entry was “a side product in which deamidation of the aspartate residue occurred” and the “purity (crude or final not stated)” value is given as ≥70%.

On to CF-FNQLAALNSAAYLQQQQLLPFSQLA, for which the “purity (crude or final not stated)” value is >90%.

As for “PEPTIDE1{A.Y.L.Q.A.Q.Q.L.L.P.F.N.Q.L.V.R.S.P.A.A.[am]}$$$$V2.0”, the “purity (crude or final not stated)” value was ≥95%.
